Some targets named below: sLUR-517GFP (human) (UniProt Q14160); sLUR-420GFP (human) (UniProt Q14160); sLUR-402GFP (human) (UniProt Q14160).
What all share (assay): affinity purification with mass spectrometry; in-cell cross-linking with BMPEO3 (cysteine-specific, 14.7 Å spacer arm) before lysis; GFP-trap; LC-MS/MS; list filtered against wt DLD1 cells and sLUR-P305L-517GFP cells

The chains behind the UniProt entries cited, without tags or fusion partners. Residues count along the entry.
sLUR-517GFP (Q14160, residues 1-517): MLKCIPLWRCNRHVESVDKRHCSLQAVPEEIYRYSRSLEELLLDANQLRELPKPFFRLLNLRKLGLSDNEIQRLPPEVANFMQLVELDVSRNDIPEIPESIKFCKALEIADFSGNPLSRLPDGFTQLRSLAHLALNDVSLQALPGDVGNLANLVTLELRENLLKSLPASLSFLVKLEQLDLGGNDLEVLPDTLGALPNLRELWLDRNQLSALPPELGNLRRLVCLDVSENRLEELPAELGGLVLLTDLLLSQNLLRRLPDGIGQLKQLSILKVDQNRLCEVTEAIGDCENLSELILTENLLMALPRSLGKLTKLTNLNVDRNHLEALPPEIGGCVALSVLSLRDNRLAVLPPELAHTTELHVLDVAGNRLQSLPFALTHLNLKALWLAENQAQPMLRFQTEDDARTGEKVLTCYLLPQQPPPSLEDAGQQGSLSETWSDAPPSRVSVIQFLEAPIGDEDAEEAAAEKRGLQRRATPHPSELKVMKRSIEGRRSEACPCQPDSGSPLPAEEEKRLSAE
sLUR-420GFP (Q14160, residues 1-420): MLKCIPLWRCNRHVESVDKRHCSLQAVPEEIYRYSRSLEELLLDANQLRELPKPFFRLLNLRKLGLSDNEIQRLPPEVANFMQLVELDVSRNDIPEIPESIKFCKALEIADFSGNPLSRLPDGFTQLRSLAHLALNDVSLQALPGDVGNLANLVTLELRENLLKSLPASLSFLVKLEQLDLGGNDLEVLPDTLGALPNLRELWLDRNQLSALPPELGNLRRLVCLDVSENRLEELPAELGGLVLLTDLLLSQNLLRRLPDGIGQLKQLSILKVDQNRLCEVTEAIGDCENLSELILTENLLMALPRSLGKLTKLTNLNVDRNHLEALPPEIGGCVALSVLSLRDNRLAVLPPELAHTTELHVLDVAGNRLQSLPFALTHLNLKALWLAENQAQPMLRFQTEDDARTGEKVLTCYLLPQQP
sLUR-402GFP (Q14160, residues 1-402): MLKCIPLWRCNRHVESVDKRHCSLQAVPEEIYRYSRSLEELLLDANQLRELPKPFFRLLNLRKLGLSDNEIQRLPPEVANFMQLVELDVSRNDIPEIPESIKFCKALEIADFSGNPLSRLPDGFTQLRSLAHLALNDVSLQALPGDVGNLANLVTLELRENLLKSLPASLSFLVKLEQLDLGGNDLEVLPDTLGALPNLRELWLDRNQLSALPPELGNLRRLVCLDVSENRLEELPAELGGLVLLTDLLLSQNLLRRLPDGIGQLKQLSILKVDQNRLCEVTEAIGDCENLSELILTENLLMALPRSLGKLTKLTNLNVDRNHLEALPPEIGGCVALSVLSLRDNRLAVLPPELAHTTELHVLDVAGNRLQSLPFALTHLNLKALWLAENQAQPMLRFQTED
UniProt Q7KZI7: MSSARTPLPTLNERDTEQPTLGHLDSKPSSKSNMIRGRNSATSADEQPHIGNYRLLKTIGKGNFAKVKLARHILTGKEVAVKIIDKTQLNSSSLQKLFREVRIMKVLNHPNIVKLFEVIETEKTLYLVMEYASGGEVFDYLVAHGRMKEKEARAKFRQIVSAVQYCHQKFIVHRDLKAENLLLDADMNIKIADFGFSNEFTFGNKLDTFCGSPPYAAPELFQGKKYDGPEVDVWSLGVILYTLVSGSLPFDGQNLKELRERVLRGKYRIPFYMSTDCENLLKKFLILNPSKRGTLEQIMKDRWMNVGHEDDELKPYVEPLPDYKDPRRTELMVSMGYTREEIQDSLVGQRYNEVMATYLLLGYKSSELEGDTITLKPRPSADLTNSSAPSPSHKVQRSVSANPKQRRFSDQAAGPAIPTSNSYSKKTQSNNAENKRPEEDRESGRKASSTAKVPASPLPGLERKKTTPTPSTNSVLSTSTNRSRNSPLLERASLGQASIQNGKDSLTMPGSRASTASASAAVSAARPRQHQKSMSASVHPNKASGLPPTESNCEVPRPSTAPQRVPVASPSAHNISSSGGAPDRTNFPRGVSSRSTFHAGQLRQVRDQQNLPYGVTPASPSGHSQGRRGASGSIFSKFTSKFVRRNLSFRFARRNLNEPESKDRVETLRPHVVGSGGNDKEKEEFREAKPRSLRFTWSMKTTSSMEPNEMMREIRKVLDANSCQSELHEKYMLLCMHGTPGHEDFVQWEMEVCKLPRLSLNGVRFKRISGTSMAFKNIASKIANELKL
UniProt P04899: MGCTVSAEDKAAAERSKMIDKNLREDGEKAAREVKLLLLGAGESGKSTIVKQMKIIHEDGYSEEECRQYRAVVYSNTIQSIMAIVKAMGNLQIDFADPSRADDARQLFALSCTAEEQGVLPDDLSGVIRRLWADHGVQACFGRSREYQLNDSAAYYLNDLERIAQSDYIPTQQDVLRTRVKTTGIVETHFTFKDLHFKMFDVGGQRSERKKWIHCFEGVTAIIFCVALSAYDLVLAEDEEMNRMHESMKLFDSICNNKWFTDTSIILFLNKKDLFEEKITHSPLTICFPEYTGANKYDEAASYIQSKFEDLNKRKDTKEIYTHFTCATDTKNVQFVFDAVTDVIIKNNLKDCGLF
UniProt Q9H9A6: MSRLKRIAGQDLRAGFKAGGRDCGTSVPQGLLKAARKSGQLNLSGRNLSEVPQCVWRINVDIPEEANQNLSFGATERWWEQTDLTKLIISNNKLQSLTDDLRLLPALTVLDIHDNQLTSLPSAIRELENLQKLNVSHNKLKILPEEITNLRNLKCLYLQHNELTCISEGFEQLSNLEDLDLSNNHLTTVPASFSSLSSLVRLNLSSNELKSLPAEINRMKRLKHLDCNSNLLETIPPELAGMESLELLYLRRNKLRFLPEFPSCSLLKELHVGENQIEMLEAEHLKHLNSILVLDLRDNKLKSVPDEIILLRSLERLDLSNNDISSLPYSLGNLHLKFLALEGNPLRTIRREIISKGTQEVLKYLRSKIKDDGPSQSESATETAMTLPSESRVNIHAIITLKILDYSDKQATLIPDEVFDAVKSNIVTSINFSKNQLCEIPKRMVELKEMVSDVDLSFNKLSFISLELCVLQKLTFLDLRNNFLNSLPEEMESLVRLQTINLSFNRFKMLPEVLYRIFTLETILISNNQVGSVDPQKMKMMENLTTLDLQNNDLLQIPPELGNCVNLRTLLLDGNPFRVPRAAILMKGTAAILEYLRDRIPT
UniProt O43491: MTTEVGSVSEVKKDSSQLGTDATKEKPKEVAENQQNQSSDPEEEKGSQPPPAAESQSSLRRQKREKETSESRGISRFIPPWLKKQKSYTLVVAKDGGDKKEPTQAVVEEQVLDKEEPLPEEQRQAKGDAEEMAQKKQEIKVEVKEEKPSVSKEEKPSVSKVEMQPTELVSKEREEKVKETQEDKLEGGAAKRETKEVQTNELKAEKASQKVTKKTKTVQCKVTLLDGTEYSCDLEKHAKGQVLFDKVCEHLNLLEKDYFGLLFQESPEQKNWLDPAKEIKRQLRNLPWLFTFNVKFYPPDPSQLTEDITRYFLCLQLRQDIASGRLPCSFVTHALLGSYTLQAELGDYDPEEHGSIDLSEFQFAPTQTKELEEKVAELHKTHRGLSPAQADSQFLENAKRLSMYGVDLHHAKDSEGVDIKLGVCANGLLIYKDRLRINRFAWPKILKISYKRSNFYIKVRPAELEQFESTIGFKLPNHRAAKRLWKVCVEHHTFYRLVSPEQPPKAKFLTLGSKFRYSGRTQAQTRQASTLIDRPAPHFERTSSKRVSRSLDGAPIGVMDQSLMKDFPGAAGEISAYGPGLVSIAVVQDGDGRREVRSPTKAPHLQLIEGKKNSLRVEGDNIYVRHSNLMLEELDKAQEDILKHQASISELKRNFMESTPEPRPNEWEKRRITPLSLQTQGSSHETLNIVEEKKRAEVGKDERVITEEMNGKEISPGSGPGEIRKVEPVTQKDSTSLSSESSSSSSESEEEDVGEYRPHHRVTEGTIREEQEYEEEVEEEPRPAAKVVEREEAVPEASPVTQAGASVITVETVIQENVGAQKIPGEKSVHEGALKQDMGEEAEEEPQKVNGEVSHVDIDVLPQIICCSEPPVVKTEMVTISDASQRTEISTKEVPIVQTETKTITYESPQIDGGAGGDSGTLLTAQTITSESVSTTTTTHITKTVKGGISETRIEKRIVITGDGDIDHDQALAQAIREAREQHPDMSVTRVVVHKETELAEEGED
UniProt P08754: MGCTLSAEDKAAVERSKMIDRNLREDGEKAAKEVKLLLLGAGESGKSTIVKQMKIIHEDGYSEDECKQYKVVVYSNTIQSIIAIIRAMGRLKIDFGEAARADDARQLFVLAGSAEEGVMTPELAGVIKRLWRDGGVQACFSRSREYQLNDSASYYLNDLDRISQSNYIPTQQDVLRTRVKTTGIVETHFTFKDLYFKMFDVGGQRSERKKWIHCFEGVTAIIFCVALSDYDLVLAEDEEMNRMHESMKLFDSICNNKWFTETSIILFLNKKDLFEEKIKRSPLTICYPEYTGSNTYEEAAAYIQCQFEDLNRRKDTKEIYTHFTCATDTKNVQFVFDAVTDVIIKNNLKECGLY
UniProt O60346: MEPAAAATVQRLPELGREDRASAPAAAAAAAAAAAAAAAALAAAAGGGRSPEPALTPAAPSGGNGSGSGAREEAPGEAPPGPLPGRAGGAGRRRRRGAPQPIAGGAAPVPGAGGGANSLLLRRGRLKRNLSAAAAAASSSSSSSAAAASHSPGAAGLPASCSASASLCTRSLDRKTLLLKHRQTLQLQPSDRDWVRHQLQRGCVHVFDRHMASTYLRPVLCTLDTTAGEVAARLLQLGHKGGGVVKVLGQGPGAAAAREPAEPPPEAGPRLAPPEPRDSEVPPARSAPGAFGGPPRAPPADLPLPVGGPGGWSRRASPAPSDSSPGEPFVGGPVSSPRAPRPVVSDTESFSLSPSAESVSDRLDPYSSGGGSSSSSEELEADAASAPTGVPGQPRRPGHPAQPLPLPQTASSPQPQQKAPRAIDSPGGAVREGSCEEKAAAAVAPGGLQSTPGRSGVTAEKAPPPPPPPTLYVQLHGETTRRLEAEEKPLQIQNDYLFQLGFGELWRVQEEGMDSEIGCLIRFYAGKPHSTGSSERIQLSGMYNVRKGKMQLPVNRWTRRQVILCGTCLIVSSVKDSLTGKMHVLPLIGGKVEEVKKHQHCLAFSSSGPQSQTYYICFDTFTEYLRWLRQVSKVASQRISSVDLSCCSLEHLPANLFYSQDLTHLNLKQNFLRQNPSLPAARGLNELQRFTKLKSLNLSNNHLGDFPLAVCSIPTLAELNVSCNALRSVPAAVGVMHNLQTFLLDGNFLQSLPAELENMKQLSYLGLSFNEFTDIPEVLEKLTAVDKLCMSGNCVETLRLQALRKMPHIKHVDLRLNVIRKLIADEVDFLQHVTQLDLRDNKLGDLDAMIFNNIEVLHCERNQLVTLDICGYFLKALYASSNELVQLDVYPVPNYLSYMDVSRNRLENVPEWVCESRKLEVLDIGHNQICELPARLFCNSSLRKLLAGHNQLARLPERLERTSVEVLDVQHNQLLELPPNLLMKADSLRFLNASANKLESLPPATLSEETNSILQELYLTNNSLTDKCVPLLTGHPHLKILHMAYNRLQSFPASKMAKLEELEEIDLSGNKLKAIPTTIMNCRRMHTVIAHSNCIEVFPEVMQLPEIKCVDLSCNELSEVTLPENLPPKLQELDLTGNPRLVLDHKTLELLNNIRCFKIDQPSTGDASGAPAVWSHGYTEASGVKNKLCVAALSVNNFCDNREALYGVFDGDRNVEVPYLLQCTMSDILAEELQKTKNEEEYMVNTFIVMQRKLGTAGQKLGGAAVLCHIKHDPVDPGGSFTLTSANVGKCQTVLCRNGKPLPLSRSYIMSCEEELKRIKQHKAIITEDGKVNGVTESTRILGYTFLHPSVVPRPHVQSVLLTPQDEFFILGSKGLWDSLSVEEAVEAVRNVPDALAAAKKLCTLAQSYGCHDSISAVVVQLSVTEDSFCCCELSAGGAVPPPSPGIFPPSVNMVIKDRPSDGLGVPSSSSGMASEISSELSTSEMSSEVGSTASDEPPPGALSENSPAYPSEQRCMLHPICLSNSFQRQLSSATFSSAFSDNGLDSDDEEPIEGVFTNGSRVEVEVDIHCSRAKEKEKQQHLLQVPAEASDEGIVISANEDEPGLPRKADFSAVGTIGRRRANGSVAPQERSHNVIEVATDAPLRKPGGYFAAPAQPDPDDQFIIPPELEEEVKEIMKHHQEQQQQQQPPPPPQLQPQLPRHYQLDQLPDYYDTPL
UniProt P62873: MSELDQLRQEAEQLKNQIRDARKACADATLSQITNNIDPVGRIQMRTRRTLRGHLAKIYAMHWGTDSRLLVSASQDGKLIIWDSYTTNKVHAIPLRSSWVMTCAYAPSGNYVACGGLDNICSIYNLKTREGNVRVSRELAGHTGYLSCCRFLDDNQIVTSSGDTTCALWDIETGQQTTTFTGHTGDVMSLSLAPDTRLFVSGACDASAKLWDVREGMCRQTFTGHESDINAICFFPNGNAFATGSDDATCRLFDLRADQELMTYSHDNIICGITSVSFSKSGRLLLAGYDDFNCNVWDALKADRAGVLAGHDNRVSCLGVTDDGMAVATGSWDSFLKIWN

These are yes or no findings as the source states them, for the method shown. Binding seen in cells or lysates may run through a third protein. A yes stands for co-enrichment or nearness to the bait. Other partners may have been found. For some assays here: A no says only that the protein was not detected with the bait.

With “PP-1A (from UniProt P62136 1-330) (enzyme)”, the binding entry with sLUR-517GFP (human) and with sLUR-420GFP (human) was “binds” each time.

Take “MARK2 (from UniProt Q7KZI7 1-788) (enzyme)”: the binding entry in the experiment with sLUR-402GFP (human), in the experiment with sLUR-517GFP (human) and with sLUR-420GFP (human) was “binds” in each case.

For GNAI2 (from UniProt P04899 1-355), the binding result in the experiment with sLUR-402GFP (human), with sLUR-517GFP (human) and with sLUR-420GFP (human) was “binds” in each case.

For the substance “PP-1B (from UniProt P62140 1-327) (enzyme)”, the binding entry in the experiment with sLUR-517GFP (human) and with sLUR-420GFP (human) was “binds” throughout.

EPB41L5 (from UniProt Q9HCM4 1-733): the binding result in the experiment with sLUR-517GFP (human) and with sLUR-420GFP (human) was “binds” throughout.

For the substance LRRC40 (from UniProt Q9H9A6 1-602), the binding entry with sLUR-402GFP (human) was “binds”; in the experiment with sLUR-517GFP (human), “no binding”; in the experiment with sLUR-420GFP (human), “no binding”.

FAT1 (from UniProt Q14517 22-4588): the binding result with sLUR-402GFP (human), with sLUR-517GFP (human) and with sLUR-420GFP (human) was “binds” in each case.

With EPB41L2 (from UniProt O43491 1-1005), the binding result with sLUR-402GFP (human), in the experiment with sLUR-517GFP (human) and with sLUR-420GFP (human) was “binds” each time.

GNAI3 (from UniProt P08754 1-354): the binding result in the experiment with sLUR-402GFP (human), with sLUR-517GFP (human) and with sLUR-420GFP (human) was “binds” each time.

On to EHBP1L1 (from UniProt Q8N3D4 1-1523), for which the binding entry with sLUR-517GFP (human) and in the experiment with sLUR-420GFP (human) was “binds” throughout.

On to “PHLPP1 (from UniProt O60346 1-1717) (enzyme)”, for which the binding result with sLUR-402GFP (human) is listed as “binds”; with sLUR-517GFP (human), “no binding”; with sLUR-420GFP (human), “no binding”.

GNA13 (from UniProt Q14344 1-377): the binding entry in the experiment with sLUR-402GFP (human), with sLUR-517GFP (human) and with sLUR-420GFP (human) was “binds” throughout.

As to GNB1 (from UniProt P62873 1-340), the binding entry in the experiment with sLUR-402GFP (human), in the experiment with sLUR-517GFP (human) and with sLUR-420GFP (human) was “binds” throughout.

For GNB2 (from UniProt P62879 1-340), the binding entry with sLUR-402GFP (human), with sLUR-517GFP (human) and with sLUR-420GFP (human) was “binds” each time.
